Among the data in paper PMC11635738 are binding values, retold here.

No constants are given. Whether binding was seen depends on the method and setting. In cells and extracts the contact can be indirect. A result given as binding can be weak or reduced; the word gives no strength. Sequences can lack the tags named with a protein.

For the experiment, the target named is T1, FLAG full-length SREBF1 (pcDNA3.1-FLAG-Srebf1) (mouse) (UniProt Q9WTN3).
T1 sequence: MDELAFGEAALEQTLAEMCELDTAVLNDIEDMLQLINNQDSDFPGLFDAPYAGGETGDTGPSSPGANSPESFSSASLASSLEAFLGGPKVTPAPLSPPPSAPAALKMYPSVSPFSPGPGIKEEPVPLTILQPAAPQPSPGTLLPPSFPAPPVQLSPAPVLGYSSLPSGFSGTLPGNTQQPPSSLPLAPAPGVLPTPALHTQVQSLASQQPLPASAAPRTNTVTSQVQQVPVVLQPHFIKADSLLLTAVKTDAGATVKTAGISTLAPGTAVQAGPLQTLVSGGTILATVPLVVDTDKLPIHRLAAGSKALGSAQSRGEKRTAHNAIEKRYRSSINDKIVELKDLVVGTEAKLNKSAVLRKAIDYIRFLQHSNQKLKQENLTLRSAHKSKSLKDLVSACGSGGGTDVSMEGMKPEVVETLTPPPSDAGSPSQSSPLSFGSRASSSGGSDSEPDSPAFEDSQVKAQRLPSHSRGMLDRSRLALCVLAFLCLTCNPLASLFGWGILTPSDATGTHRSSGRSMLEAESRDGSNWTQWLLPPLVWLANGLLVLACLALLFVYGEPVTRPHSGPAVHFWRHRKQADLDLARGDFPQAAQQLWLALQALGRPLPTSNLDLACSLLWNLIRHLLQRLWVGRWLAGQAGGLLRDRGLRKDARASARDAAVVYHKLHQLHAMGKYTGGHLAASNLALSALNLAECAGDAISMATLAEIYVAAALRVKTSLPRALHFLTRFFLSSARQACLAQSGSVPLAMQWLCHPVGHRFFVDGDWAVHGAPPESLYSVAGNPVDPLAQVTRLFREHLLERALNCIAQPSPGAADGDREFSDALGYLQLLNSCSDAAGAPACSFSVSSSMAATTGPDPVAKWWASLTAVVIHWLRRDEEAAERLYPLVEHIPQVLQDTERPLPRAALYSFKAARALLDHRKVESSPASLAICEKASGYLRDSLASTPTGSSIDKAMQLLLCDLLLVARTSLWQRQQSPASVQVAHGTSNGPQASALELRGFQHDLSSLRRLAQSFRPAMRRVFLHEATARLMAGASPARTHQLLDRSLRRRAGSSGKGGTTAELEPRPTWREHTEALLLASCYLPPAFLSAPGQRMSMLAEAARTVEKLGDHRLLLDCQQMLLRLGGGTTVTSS
Kind of experiment: co-IP; HEK293T cells transfected with FLAG-Srebf1 (full length) and/or 2xMyc-SCAP together with V5-Armc5 and PA-Insig1; lysis in TNE buffer; anti-FLAG M2 Affinity Gel; elution with FLAG peptide; Western blot. Background: In western blotting, separated proteins are transferred to a membrane and probed.

With “2xMyc-SCAP (pcDNA3.1/Hygro(+)-2xMyc-SCAP)”, the binding entry is reported as “binds”.
